The values below come from article PMC7862700.

This is one part of the list. Construct or isoform of the protein are uncertain.

The experiment concerns the target T1, ELF2 (UniProt Q15723).
T1 sequence: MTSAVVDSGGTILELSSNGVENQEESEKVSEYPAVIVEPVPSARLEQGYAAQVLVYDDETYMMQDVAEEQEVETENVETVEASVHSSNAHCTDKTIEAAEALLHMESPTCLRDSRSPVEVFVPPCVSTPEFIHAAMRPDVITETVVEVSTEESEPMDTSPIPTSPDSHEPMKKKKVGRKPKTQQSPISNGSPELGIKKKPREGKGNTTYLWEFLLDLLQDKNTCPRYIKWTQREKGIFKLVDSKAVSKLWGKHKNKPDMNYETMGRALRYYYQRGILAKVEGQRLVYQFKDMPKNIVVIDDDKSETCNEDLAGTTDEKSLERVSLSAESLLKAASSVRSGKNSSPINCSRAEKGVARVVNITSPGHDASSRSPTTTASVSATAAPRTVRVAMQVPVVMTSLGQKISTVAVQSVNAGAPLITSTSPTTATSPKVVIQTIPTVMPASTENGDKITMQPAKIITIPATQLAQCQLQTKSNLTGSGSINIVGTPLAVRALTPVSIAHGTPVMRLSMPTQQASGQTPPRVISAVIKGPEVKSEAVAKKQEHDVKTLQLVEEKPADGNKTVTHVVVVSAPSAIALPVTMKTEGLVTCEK
The experiment can be described thus: DAPPL (digital affinity profiling via proximity ligation, sequencing). The following applies: 10 mM Tris-HCl pH 7.5, 50 mM NaCl, 1 mM DTT, 4% glycerol, room temperature, 30 min; GST-TFs on glutathione beads, 16-mer random dsDNA library, 0.1% …; high values mean tight binding; double strand, one strand shown; scale: fold enrichment (6-mer frequency, TF over GST control).
TCGAGG yielded a binding signal of 0.737.
GTGTTC returned a binding signal of 1.18.
In the case of TAATCA, the binding signal stood at 1.06.
For CGCGAT the value was 1.03.
With AGGGAT, the binding signal was found to be 0.77.
TCGATG: the binding signal is 1.06.
For AGAATC, the binding signal amounted to 0.953.
For TGATCC the value was 1.27; for CCTTAC, 1.3.
The sequence TCCACG gave a binding signal of 1.03.
In turn, TCCCCC registered a binding signal of 1.41.
For AATGGT the value was 1.34.
Turning to GGAAAA, the binding signal came out at 1.46.
With TTTAAG, the binding signal is 1.31.
For TTTCCC the value was 1.9.
The value for CTAGAA was 1.
TATAGG came in with a binding signal of 1.17.
Take CAATTC: the binding signal worked out at 1.36.
As to TCCTGC, the binding signal was 1.8.
Turning to TCGAAA, the binding signal was 0.915.
GCTATG yielded a binding signal of 1.15.
As for GTTAAT, the binding signal stood at 1.11.
In turn, GCTCAC showed a binding signal of 1.42.
CGACAA: the binding signal came to 1.13.
TTTCCA returned a binding signal of 1.28.
In the case of GGTTCT, the binding signal came out at 0.998.
ATTTTC had a binding signal of 1.46.
Sequence TCCTGT came in with a binding signal of 2.1.
For CTTCTT the value was 1.7; for GAATAT, 1.12; for AATCTC, 1.23.
Sequence CTTGAA came in with a binding signal of 1.04.
As to GGATCT, the binding signal is 1.01.
As for TTAGTG, the binding signal came to 0.829.
Consider TTAGAT, for which the binding signal is 1.02.
In turn, CTGGCA had a binding signal of 1.17.
Take TATCAA: the binding signal was determined as 1.02.
For the sequence AATGCG, the binding signal is 1.37.
Consider TAAGCG, for which the binding signal is 0.997.
TAGAAA: the binding signal was 1.03.
